Reference: PMC9948342
Results are given in words; binding and its absence hold for the method and conditions named. In cells and extracts the contact can be indirect. A yes stands for co-enrichment or nearness to the bait. Other partners may have been found.

Sequences of proteins named here, by UniProt entry; tags and fusion partners are left off.
UniProt P07951: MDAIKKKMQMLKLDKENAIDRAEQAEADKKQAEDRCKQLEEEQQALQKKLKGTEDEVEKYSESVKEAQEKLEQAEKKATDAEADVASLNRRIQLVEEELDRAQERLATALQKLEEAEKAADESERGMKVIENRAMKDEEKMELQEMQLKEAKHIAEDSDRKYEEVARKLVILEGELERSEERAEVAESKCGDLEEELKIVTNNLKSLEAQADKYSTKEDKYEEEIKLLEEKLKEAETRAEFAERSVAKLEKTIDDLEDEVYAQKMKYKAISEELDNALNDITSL
UniProt Q9NR12: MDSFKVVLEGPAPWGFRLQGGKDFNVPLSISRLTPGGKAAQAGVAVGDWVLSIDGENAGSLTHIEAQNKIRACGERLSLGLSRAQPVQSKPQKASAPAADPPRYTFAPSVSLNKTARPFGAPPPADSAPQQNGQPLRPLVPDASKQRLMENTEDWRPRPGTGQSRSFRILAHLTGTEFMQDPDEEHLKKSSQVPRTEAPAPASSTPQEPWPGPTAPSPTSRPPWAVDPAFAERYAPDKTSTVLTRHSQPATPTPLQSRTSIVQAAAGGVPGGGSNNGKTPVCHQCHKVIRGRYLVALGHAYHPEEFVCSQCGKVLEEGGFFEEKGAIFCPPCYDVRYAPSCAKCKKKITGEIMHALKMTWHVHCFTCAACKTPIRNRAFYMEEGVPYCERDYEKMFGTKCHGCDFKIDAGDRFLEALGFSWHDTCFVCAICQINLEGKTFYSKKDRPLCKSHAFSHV

Molecular target: Flag-TPM2 (human) (UniProt P07951)
Assay: affinity purification with mass spectrometry; Flag-TPM2 transfected into HEK293T; whole cell lysate in IP lysis buffer immunoprecipitated with Flag magnetic beads or IgG control beads at 4 °C overnight; eluate analysed by MS

PDLIM7 (from UniProt Q9NR12 1-457) was tested, and the binding was “binds”.
